From patent US20120271039
For part of these data: No signal at the amounts used counts as a negative. For part of these data: Construct, isoform or probe ends are uncertain for at least one entry. For part of these data: Protein sequences can lack the tags named with them.

Chains of the proteins cited; added tags and fusions are not shown. Residues count along the entry.
UniProt P00740, 47-461: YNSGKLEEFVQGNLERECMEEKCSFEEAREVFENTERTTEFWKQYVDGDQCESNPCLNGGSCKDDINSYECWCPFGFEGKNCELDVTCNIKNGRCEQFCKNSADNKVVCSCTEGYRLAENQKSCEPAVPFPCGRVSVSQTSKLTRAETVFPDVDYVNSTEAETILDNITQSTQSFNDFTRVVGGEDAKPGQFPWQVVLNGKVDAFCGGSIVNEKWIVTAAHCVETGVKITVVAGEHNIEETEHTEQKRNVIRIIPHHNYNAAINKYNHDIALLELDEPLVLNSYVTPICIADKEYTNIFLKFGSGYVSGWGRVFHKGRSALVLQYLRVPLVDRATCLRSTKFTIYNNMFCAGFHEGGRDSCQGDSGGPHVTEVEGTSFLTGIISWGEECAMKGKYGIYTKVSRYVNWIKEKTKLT

How the values were obtained:
[1] = target: Coagulation Factor IX (recombinant) (Homo sapiens) (UniProt P00740); assay: SPR; settings: purified recombinant protein, single-stranded DNA
[2] = target: T1, Coagulation Factor VII (plasma) (Homo sapiens) (UniProt P08709); assay: SPR; settings: 5' biotin, purified native protein, label: biotin, single-stranded DNA; for Kd: 5x PEG(C18) spacer
T1 sequence (looked up, limits assumed): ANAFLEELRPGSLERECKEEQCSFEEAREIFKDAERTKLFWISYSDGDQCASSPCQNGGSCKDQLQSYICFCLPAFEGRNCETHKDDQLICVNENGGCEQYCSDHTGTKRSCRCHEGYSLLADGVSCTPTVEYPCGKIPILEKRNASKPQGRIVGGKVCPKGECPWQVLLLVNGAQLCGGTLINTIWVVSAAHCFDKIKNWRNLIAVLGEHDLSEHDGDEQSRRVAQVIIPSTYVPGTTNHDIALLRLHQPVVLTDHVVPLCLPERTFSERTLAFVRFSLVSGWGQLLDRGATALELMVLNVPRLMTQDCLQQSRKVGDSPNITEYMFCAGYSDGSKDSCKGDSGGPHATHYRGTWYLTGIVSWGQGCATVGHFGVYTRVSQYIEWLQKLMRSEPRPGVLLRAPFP

[3] = test system: Des-Gla Factor VII and poorly glycosylated forms (Homo sapiens); assay: binding assay; settings: not retained on affinity support, purified native protein, protein details: inactive forms present in plasma FVII concentrate, single-stranded DNA
[4] = target: T1, Coagulation Factor VII (plasma) (Homo sapiens); assay: binding assay; settings: biotin-PEG(C18) spacer when immobilized on column; affinity chromatography; 78% of proteins in eluate; text of example prints SEQ ID 37 for Mapt-2.2-CS; purified native protein; single-stranded DNA
[5] = target: Coagulation Factor IX (plasma) (Homo sapiens) (UniProt P00740); assay: binding assay; settings: biotin-PEG(C18) spacer when immobilized on column; affinity chromatography; 40% of proteins in eluate; CaCl2, EDTA elution; purified native protein; single-stranded DNA; variant of Mapt-1.2-CS
[6] = target: Coagulation Factor IX (plasma) (Homo sapiens) (UniProt P00740); assay: SPR; settings: 5' biotin, PEG(C18) spacer for SPR; no spacer on column in examples 8-A and 9; also retained on Mapt-1 column, eluted by 10 mM EDTA; purified native protein; label: biotin; single-stranded DNA
[7] = test system: Coagulation Factor X (plasma) (Homo sapiens); assay: SPR; settings: 5' biotin, PEG(C18) spacer for SPR; no spacer on column in examples 8-A and 9; 50 mM Tris, 50 mM NaCl, 10 mM CaCl2, 4 mM MgCl2, pH 7.4; purified native protein; protein details: plasma-derived; label: biotin; single-stranded DNA
[8] = target: Coagulation Factor IX, transgenic, poorly gamma-carboxylated (FIX-Tg) (Homo sapiens) (UniProt P00740); assay: SPR; settings: 5' biotin, PEG(C18) spacer for SPR; no spacer on column in examples 8-A and 9; incompletely gamma-carboxylated FIX; 50 mM Tris, 50 mM NaCl, 10 mM CaCl2, 4 mM MgCl2, pH 7.4; purified recombinant protein; label: biotin; single-stranded DNA
[9] = target: Coagulation Factor IX, transgenic, Mapt-1 eluted active fraction (Homo sapiens) (UniProt P00740); assay: SPR; settings: 5' biotin, PEG(C18) spacer for SPR; no spacer on column in examples 8-A and 9; active fraction eluted from Mapt-1 column; 50 mM Tris, 10 mM CaCl2, pH 7.4; purified recombinant protein; label: biotin; single-stranded DNA
[10] = FIX immobilized, Ca/Mg buffer, affinity group not assigned in text

Sequence | binding result [1, 10] | also measured
CGCACATGACTTGAAGTTAACGCGAATTACAACCCAGACCCG [core sequence SEQ ID 17] | binds | 
GGGAGATAGCCACGACCTCCGCACACCACGCGCATGACCCCGCGCACACGACTTGAAGTAGCTCCAGGCTGTGCGAAAGC [Mapt-2] |  | Kd ([2]; buffer 1: 50 mM Tris, 50 mM NaCl, 10 mM CaCl2, 4 mM MgCl2, pH 7.5, ka 3.3e3 M-1s-1, kd 4.8e-4 s-1, binding resists 3 M NaCl, eluted by EDTA): 148 nM; Kd ([2]; buffer 5: 50 mM Tris, 10 mM CaCl2, pH 7.5, ka 4.7e4 M-1s-1, kd 6e-4 s-1): 13 nM
CGCACATGACTTGAAGTAAAACGCGAATTACAGACCAAACCCG [core sequence SEQ ID 31] | binds | 
CGCACATGACTTGAAGTTAACGCGAATTACGAACCAGACCCA [core sequence SEQ ID 22] | binds | 
CGCACACGACTTGAAGTTAACGCGAATTACATCCCAGACCCG [core sequence SEQ ID 16] | binds | 
CGCACACGACTTGAAGTTAAACGCGAATTACAGACCATGCCCA [core sequence SEQ ID 6] | binds | 
CGCACATGACTTGAAGTTAACGCGAATAACAACCCATCCCCCC [core sequence SEQ ID 27] | binds | 
CGCACATGACTTGAAGTTAAACGCGAATTACAAACCAGACCCC [core sequence SEQ ID 20] | binds | 
CGCACACGACTTGAAGTTAAACGCGAATTACAAACCAGACCCC [core sequence SEQ ID 19] | binds | 
CGCACATGACTTGAAGTTAAACGCGAATTACAAACCAGACCCA [core sequence SEQ ID 23] | binds | 
CGCACACGACTTGAAGTTAAACGCGAATTACGGACCAATCCCA [core sequence SEQ ID 7] | binds | 
CCGCACACCACGCGCATGACCCCGCGCACACGACTTGAAGTAGC [Mapt-2-CS] |  | binding result ([3]; label: biotin): no binding
CGCACATGACTTGAAGTTAAACGCGAATTACAAACCAAACCCA [core sequence SEQ ID 24] | binds | 
CGCACACGACTTGAAGTTAACCGCGAATTACAAACCAAACCCA [core sequence SEQ ID 32] | binds | 
CGCACACGACGTGAAGTTAACGCGAATCACAAACCAAACCCG [core sequence SEQ ID 33] | binds | 
CGCACATGACTTGAAGTTAACGCGAATTACAAACCAACCCCC [core sequence SEQ ID 26] | binds | 
CGCACATGACTTGAAGTTAAACGCGAACTACATACCAAGCCCA [core sequence SEQ ID 9] | binds | 

Sequence | binding result [1, 10] | also measured
CGCACAATGACTTGAAGTGAAACGCGAATAACAAACCAGGCCCC [core sequence SEQ ID 28] | binds | 
CGCACATGACTCGAAATAAACGCGAATTACAAACCCAGCCCCC [core sequence SEQ ID 13] | binds | 
CCGCACGCTACGCGCATGAACCCGCGCACACGACTTGAAGTAGC [Mapt-2.2-CS] |  | binding result [4]: binds; binding result ([3]; biotin-PEG(C18) spacer when immobilized on column): no binding
CGCACATGACTTGAAGTTAAACGCGAATTACAGACCAAACCCA [core sequence SEQ ID 29] | binds | 
CGCACATGACTTGAAGTTAACGCGAATTACAACCCAGACCC [core sequence SEQ ID 18] | binds | 
CCACGACCTCGCACATGACTTGAAGTAAAACGCGAATTAC [Mapt-1.2-CSO] |  | binding result ([1]; biotin-PEG(C18) spacer when immobilized on column, FIX immobilized, significantly higher affinity than Mapt-1.2-CS, 50 mM Tris, 10 mM CaCl2, 4 mM MgCl2, pH 7.5, variant of Mapt-1.2-CS): binds; binding result [5]: binds
CGCACACAGCTCGAAGTTAAACGCGAATTACAAACCAGGCCCC [core sequence SEQ ID 34] | binds | 
CGCACATGACTTGAAGTTAAACGCGAATTACAGACCAAACCCC [core sequence SEQ ID 30] | binds | 
CGCACATGACTTGAAGTTAAACGCGAATTACAAACCCAGCCCCC [core sequence SEQ ID 10] | binds | 
GGGAGATAGCCACGACCTCGCACATGACTTGAAGTTAAACGCGAATTACAAACCCAGCCCCCTCCAGGCTGTGCGAAAGC [Mapt-1 (Mapt-1-WS)] |  | binding result ([2]; PEG(C18) spacer for SPR, no spacer on column in examples 8-A and 9, 50 mM Tris, 50 mM NaCl, 10 mM CaCl2, 4 mM MgCl2, pH 7.4): binds; binding result [6]: binds; binding result ([1]; 5' biotin, PEG(C18) spacer for SPR, no spacer on column in examples 8-A and 9, aptamer immobilized, 50 mM Tris, 50 mM NaCl, 10 mM CaCl2, 4 mM MgCl2, pH 7.4, eluted by EDTA, label: biotin): binds; binding result [7]: binds; binding result [8]: no binding; binding result [9]: binds
CGCACATGACTCGAAGTTAAACGCGAATTACAAACCAAGCCCA [core sequence SEQ ID 14] | binds | 
CGCACATGACTTGAAGTTAAACGCGAATTACAAACCAAACCCG [core sequence SEQ ID 25] | binds | 
CGCACATGACTTGAAGTTAAACGCGAATTACGAACCAGACCCC [core sequence SEQ ID 21] | binds | 
TCGCACATGACATGAAGTTAAACGCGAATTACAAACCCAGCCCCC [core sequence SEQ ID 12] | binds | 
CGCACACGACTTGAAGTTAAACGCGAACTACAGACCAAGCCCA [core sequence SEQ ID 8] | binds | 
CGCACATGACTTGAAGTTAAACGCGAATTACAAACCTAGCCCA [core sequence SEQ ID 15] | binds | 
CGCACAAGACTTGAAGTTAAACGCGAATTACAAACCCAGCCCCC [core sequence SEQ ID 11] | binds | 
